No constants are given. Whether binding was seen depends on the method and setting. Some binding calls cover weakened binding; strength is not graded here.
Target: GPC3(AA)-hFc, GPC3-human Fc fusion without the HS chains (human) (UniProt P51654)
Test: ELISA, epitope mapping on recombinant GPC3 proteins (FIG. 5)

B1: HN3 single-domain VH displayed on phage (clone HN3) (VHH)
VHH: QVQLVQSGGGLVQPGGSLRLSCAASYFDFDSYEMSWVRQAPGKGLEWIGSIYHSGSTYYNPSLKSRVTISRDNSKNTLYLQMNTLRAEDTATYYCARVNMDRFDYWGQGTLVTVSS
**Q.** How did the binding turn out when B1 was run?
**A.** binds
